Source: PubChem BioAssay (NCATS)
The shares of active, inactive and inconclusive entries below differ from those in the screen. A potency beside an inconclusive call is a rough fit, not a confirmed value. Activity calls are given as the source filed them. The call rests on the fitted dose curve; in most records, active means well fitted curve in the direction sought with a large enough effect; inconclusive means small, poorly fitted or top-dose-only effect, or another doubt; inactive means no such curve, though single readings can be large; an effect the other way counts as inactive or inconclusive.

Chains of the proteins cited; added tags and fusions are not shown. Lines headed by an entry give the natural chain unless they say otherwise; changes in a name come on top.
UniProt Q9UNA4: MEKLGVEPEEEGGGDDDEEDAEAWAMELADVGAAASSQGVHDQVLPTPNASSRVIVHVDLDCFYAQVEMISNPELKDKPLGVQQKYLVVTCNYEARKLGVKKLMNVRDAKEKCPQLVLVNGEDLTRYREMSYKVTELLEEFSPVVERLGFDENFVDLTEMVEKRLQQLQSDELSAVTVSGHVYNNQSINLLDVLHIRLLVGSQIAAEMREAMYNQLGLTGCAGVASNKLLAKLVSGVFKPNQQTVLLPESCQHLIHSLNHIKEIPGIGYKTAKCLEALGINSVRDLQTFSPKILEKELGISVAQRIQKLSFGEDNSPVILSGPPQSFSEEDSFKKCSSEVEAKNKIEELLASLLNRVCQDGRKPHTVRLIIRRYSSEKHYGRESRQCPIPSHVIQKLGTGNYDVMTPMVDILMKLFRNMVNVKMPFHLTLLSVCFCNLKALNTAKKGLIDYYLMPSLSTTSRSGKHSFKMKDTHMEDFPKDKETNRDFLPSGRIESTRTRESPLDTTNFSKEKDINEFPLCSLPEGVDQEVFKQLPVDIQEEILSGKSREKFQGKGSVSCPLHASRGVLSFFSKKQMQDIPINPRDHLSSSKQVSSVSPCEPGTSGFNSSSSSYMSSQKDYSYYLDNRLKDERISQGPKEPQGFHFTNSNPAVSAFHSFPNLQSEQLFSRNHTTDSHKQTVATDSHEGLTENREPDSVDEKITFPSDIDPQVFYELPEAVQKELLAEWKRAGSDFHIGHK
UniProt Q9Y253: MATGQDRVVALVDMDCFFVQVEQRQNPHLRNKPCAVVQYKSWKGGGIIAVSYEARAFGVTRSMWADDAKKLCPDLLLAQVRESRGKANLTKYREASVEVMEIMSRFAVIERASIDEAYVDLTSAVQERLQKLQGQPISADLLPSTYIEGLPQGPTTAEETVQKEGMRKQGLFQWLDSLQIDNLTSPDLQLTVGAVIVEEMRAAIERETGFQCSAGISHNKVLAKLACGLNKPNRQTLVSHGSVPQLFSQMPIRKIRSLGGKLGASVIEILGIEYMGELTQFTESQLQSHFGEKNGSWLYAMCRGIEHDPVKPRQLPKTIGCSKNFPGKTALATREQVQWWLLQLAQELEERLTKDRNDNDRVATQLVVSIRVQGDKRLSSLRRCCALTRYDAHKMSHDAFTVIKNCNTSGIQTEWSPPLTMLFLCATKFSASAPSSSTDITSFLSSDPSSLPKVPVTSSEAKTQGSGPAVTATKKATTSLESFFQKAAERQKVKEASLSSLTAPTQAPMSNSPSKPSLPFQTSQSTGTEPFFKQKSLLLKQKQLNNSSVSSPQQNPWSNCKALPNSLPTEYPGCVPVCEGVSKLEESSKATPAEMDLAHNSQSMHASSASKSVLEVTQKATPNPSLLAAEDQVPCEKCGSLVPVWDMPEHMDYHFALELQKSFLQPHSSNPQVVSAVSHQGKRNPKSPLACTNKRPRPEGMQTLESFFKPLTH
UniProt Q9UBT6: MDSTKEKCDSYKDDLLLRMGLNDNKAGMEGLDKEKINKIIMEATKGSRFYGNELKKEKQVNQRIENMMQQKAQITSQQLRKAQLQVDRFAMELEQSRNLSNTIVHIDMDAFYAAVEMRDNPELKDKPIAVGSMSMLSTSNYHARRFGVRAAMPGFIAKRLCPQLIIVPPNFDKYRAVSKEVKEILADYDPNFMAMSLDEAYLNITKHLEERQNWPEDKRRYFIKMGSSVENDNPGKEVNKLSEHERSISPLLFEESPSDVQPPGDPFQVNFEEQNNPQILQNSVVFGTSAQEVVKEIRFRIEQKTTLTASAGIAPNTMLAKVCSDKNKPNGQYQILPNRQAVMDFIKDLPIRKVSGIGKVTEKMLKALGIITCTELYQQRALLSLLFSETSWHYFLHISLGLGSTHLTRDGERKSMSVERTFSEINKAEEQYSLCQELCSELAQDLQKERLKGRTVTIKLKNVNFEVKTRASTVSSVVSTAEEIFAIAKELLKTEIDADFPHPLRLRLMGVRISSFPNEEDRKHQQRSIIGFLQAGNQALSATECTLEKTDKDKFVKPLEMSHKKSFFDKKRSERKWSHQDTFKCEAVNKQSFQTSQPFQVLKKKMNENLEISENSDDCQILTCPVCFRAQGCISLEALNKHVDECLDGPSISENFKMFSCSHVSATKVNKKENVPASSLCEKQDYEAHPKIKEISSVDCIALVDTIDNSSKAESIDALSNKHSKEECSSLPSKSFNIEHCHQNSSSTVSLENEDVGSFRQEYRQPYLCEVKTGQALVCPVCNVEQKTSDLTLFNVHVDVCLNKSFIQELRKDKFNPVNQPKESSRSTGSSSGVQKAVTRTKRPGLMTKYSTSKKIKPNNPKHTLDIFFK

What was measured:
[1] = biological target: DNA polymerase iota (Homo sapiens) (UniProt Q9UNA4); test: qHTS for Inhibitors of Polymerase Iota: Confirmatory Assay for Cherry-picked Compounds (AID 720496); settings: Pol iota primer extension, TAMRA/BHQ fluorescence
Summary of the method: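 Using TAMRA dequenching as read-out, activity of 10 nM human Pol iota on 50 nM (final) primer/reporter/template substrate was tracked from 0 to 10 min, following a 15 min room-temperature compound preincubation.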

[2] = biological target: DNA polymerase eta (Homo sapiens) (UniProt Q9Y253); test: qHTS for Inhibitors of Polymerase Eta: Confirmatory Assay for Cherry-picked Compounds (AID 720502); settings: Pol eta primer extension, TAMRA/BHQ fluorescence, 10 min
Summary of the method: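 Human Pol eta at 10 nM was preincubated with compound for 15 min at room temperature. Reaction was started with TAMRA/BHQ-2-labelled primer-template substrate (50 nM final), with fluorescence read at 0 and 10 min (ex 525, em 598 nm).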

[3] = qHTS for Inhibitors of WRN Helicase: Thiazole Orange DNA Binding Counterscreen (AID 720499); settings: thiazole orange DNA binding displacement, fluorescence;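 further: drop in dye fluorescence marks compound binding to DNA; nearly all actives have a fitted effect of over 60% in size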
Summary of the method: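 Counterscreen to remove nonspecific DNA binders from WRN helicase hits. Compounds were incubated 15 min at room temperature with 50 nM DNA and 100 nM ThO, then fluorescence was recorded (480 nm excitation, 530 nm emission).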

[4] = biological target: DNA polymerase kappa (Homo sapiens) (UniProt Q9UBT6); test: qHTS for Inhibitors of Polymerase Kappa: Confirmatory Assay for Cherry-picked Compounds (AID 720501); settings: purified Pol-kappa, fluorescent strand-displacement substrate
Summary of the method: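 Strand-displacement fluorescence read-out: TAMRA reporter released from a BHQ-2-quenched template, measured at 525/598 nm over a 10 min kinetic window. Substrate was 50 nM final; enzyme was 10 nM Pol-kappa, preincubated 15 min at room temperature with compound.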
Potency means the concentration at half of the fitted maximal effect.

Row | Compound | Potency [1] | Potency [2] | Potency [3] | Potency [4]
1 | Cc1ccc(-n2cccc2/C=C2/C(=N)N3C(=NC2=O)SN=C3S(C)(=O)=O)cc1Cl | active: 84.4 µM | inconclusive: 84.9 µM [inhibitor, single point] | – | –
2 | Cc1ccc(-c2nc3c4ccccc4[nH]c(=O)n3n2)cc1 | inconclusive: 75.2 µM [inhibitor, partial curve] | inconclusive: 84.9 µM [inhibitor, single point] | – | –
3 | O=C(Nc1ccc(S(=O)(=O)Nc2ncccn2)cc1)c1ccc(N2CCCC2=O)cc1 | inconclusive: 59.7 µM [inhibitor, partial curve] | inconclusive: 84.9 µM [inhibitor, single point] | – | –
4 | CC(=O)c1ccc(NC(=O)CSc2nnc3c(n2)[nH]c2ccccc23)cc1 | inconclusive: 75.2 µM [inhibitor, partial curve] | inconclusive: 95.3 µM [inhibitor, single point] | – | –
5 | O=C1OC(c2ccc3c(c2)OCO3)=N/C1=C\c1ccc(C(=O)O)cc1 | inconclusive: 42.3 µM [inhibitor, partial curve] | – | inconclusive: 27.1 µM [inhibitor, partial curve, poor fit] | –
6 | CC(C)(C)c1ccc(S(=O)(=O)c2cnc(SCC(=O)Nc3ccc(F)c(Cl)c3)[nH]c2=O)cc1 | inconclusive: 84.4 µM [inhibitor, single point] | inconclusive: 95.3 µM [inhibitor, single point] | – | –
7 | N#Cc1ccccc1N1CCN(C(=O)c2ccc(NC(=O)c3ccc(Br)o3)cc2)CC1 | inconclusive: 67 µM [inhibitor, partial curve] | – | – | inconclusive: 84.4 µM [inhibitor, partial curve]
8 | Cc1cc(C(F)F)n2nc(C(=O)Nc3sc4c(c3C(N)=O)CCC4)nc2n1 | inconclusive: 67 µM [inhibitor, partial curve] | inconclusive: 84.9 µM [inhibitor, single point] | – | –
